# According to PubChem BioAssay AID2685 (National Center for Advancing Translational Sciences (NCATS), 2010):
# The other results are listed elsewhere or left out. Further columns of the screen follow, without active or inactive calls. The list favours compounds with an active or inconclusive main result. The note in brackets gives the kind of curve behind each potency; many fits are weak.
# Assay: qHTS Assay for Lipid Storage Modulators in Drosophila S3 Cells;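 on cell number change: cells counted by Cell Tracker Red CMTPX staining in the red channel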
# Settings: BODIPY lipid droplet fluorescence, 18-24 h; for cell number change: measured here: cell count max response, cells fed with added oleic acid
# Summary of the method: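 Laser-scanning cytometry quantifies lipid droplet accumulation (500–530 nm total intensity; droplet/cell object ratio) in oleic acid-fed (400 uM added) Drosophila S3 cells treated with a concentration series. 20 uM Triacsin C defined 100% inhibition.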
# [1] = measured here: cell number channel AC50, cells fed with added oleic acid
# [2] = measured here: lipid fluorescence (Fed channel) AC50, cells fed with added oleic acid
SMILES,cell number change,AC50 [1],AC50 [2]
O=C(CCC1CCCC1)Nc1cc(Cl)ccc1N1CCOCC1,-30.7%,"9.2 µM [falling, partial curve]","0.411 µM [falling, full curve, poor fit]"
COc1cccc(-c2nc(CS(=O)(=O)CC(=O)NCCCN3CC(C)CC(C)C3)c(C)o2)c1 (stereo unspecified),-24.6%,–,"29.1 µM [falling, single point]"
CC(C)CC(=O)NC(=S)Nc1cccc2nsnc12,11.8%,–,"2.06 µM [rising, full curve, poor fit]"
Clc1ccc(OCCSc2ncccn2)c(Br)c1,43.8%,"20.6 µM [rising, single point]","29.1 µM [rising, single point]"
CCOC(=O)C1(Cc2ccc(OC)cc2)CCN(C(=O)c2ccoc2C)CC1,31.2%,"18.4 µM [rising, single point]",–
COc1ccc(C)cc1NC(=O)C(Sc1ccccc1)c1ccccc1 (stereo unspecified),–,–,"6.51 µM [rising, single point]"
Cc1ccc2oc(=O)c3cnn(CC(=O)N(CCCN4CCOCC4)Cc4ccco4)c3c2c1,5.56%,–,"0.103 µM [rising, partial curve, poor fit]"
O=C(O)Cn1cnc2scc(-c3cccs3)c2c1=O,1.1%,–,–
CCOc1ccc(C2=C(C=Nc3c(C)n(C)n(-c4ccccc4)c3=O)C(c3ccc(F)cc3)c3ccccc3O2)cc1 (stereo unspecified),5.27%,–,"18.4 µM [rising, single point]"
Cc1cc(C)n(-c2nc(NCCC(C)C)c3c4c(sc3n2)COC(C)(C)C4)n1,23.4%,"4.61 µM [rising, full curve, poor fit]","6.51 µM [rising, single point]"
Cc1ccc2nc(SCc3cccc([N+](=O)[O-])c3)nc(C)c2c1,53.3%,"29.1 µM [rising, single point]","29.1 µM [rising, single point]"
Cn1c(-c2ccc(F)cc2)cnc1NCc1ccccc1F,6.31%,–,"0.082 µM [falling, full curve, poor fit]"
CCCNC(=O)c1ccc(N2CCC3(CC2)CC(c2ccccc2)=NO3)c(NC(=O)c2ccc(Br)cc2)c1,–,"1.84 µM [rising, partial curve]","3.26 µM [rising, single point]"
CS(=O)(=O)c1sc2nc(-c3ccccc3)cc(-c3ccccc3)c2c1N,56.6%,"3.26 µM [rising, partial curve]","1.84 µM [rising, partial curve]"

# Limited to AC50 [2] and cell number change, for 2 of the compounds above:
SMILES,AC50 [2],cell number change
CCOc1ccc(C2=C(C=Nc3c(C)n(C)n(-c4ccccc4)c3=O)C(c3ccc(F)cc3)c3ccccc3O2)cc1 (stereo unspecified),"18.4 µM [rising, single point]",5.27%
Cc1cc(C)n(-c2nc(NCCC(C)C)c3c4c(sc3n2)COC(C)(C)C4)n1,"6.51 µM [rising, single point]",23.4%
